Results taken from patent US20050220895A1, “Use of gallium to treat inflammatory arthritis” (priority 2003, published 2005).
For at least one compound, name, drawing or mass did not settle the structure.

Test system: male Lewis rats with adjuvant-induced acute arthritis
Test: Adjuvant-induced acute arthritis model
Assay type: in vivo
Details: gallium maltolate 100 or 300 mg/kg, dexamethasone 0.1 mg/kg, daily oral
Description: Two preclinical animal models were tested for oral gallium efficacy in inflammatory polyarthritis; adjuvant-induced acute arthritis and streptococcal cell wall-induced chronic arthritis, respectively. Male Lewis rats were used in both studies. The models are described in detail in Bendele et al. (1999) Toxicologic Pathology 27(1):134-142 and Bendele (2001) J. Musculoskel. Neuron. Interact. 1(4):377-385.
Materials and methods: For the adjuvant-induced acute arthritis model, male Lewis rats (7 per group for Gallium Maltolate, 4 per group for normal controls and dexamethasone-treated controls) were injected with 100 μl of Freund's complete adjuvant/lipoidal amine (FCA/LA) subcutaneously at the base of the tail on study day 0 under anesthesia. […] Body weights were measured regularly during the course of the study to track the effect of the drugs on the weight loss induced by the developing adjuvant disease, and dose volumes were adjusted accordingly. […] Ankles were measured every day until 14 days post-adjuvant injection when the rats were anesthetized and euthanized. Serum was harvested one hour after final dosing for gallium quantitation. […] Splenic changes of inflammation, increased extramedullary hematopoiesis and lymphoid atrophy were scored 0-5 using criteria similar to those used for scoring of inflammation. […]

C[C@@H]1C[C@H]2[C@@H]3CCC4=CC(=O)C=C[C@]4(C)[C@@]3(F)[C@@H](O)C[C@]2(C)[C@@]1(O)C(=O)CO [Dexamethasone, dexamethasone, reference compound]
effect on body weight (arthritis-induced body weight loss): negatively impacted
ankle (joint) inflammation, clinical and histological (vs disease control): reduced ankle inflammation
